Measurements reported in patent US20110294992A1, “METAL RESPONSIVE MRI-AGENTS” (The Regents of the University of California, priority 2010, published 2011).
Some results were stated once for a whole list of compounds, not compound by compound. At least one compound was matched to its structure with a doubt left.

Experiments:
[1] = Metal ion selectivity of relaxivity response (competing metal ions alone or with added copper); assay type: physicochemical; settings: relaxivity at 60 MHz, 20 mM HEPES, pH 7, 37° C.
Protocol: FIG. 6. Relaxivity responses of CG2 to various metal ions. White bars represent the addition of an excess of the appropriate metal ion (10 mM for Na^+, 2 mM for K^+, Mg^2+, and Ca^2+, and 0.2 mM for Fe^2+, Fe^3+, Cu^2+) to a 0.2 mM solution of CG2. Response to Zn^2+ was measured both at 0.2 mM Zn^2+ (Zn^2+1×) and 2 mM Zn^2+ (Zn^2+10×). Black bars represent the subsequent addition of 0.2 mM Cu^+ to the CG2 solution. Relaxivity measurements were acquired at 37° C. in 20 mM HEPES buffer, pH 7, at a proton Larmor frequency of 60 MHz.
The potential ability of this new family of CG sensors to sense bioavailable copper pools in either or both its predominant oxidation states represents a significant advance over the initial CG1 compound.

[2] = Apparent Kd for Cu+ by UV-visible absorption with competing ligand thiourea; assay type: binding; settings: titrations of 0.2 mM contrast agent with micromolar levels of Cu^+ or Cu^2+; read-out: Kd values (bound from linear titration response)
Protocol: FIG. 5. Normalized absorbance response of 0.2 mM CG2-6 to buffered Cu^+ (CG2-5) or Cu^2+ (CG6) solutions for Kd value determination. Spectra were acquired in 20 mM HEPES, pH 7.

Row | Compound | redox specificity of relaxivity response (Cu^+ vs Cu^2+) [1] | Kd [2]
1 | O=C([O-])CN1CCN(CC(=O)[O-])CCN(Cc2cccc(CN3CCSCCSCCSCC3)n2)CCN(CC(=O)[O-])CC1.[Gd+3] [CG3] | selective for the Cu^+ oxidation state | < 1000 nM
2 | CCSCCN(Cc1ccccc1)Cc1cccc(CN2CCN(CC(=O)[O-])CCN(CC(=O)[O-])CCN(CC(=O)[O-])CC2)n1.[Gd+3] [CG4] | selective for the Cu^+ oxidation state | < 1000 nM
3 | CCSCCN(C)Cc1cccc(CN2CCN(CC(=O)[O-])CCN(CC(=O)[O-])CCN(CC(=O)[O-])CC2)n1.[Gd+3] [CG5] | selective for the Cu^+ oxidation state | < 1000 nM
4 | CCSCCN(CC(=O)[O-])Cc1cccc(CN2CCN(CC(=O)[O-])CCN(CC(=O)[O-])CCN(CC(=O)[O-])CC2)n1.[Gd+3] [CG6] | – | < 1000 nM
5 | CCSCCN(CCSCC)Cc1cccc(CN2CCN(CC(=O)[O-])CCN(CC(=O)[O-])CCN(CC(=O)[O-])CC2)n1.[Gd+3] [CG2] | selective for the Cu^+ oxidation state | < 1000 nM
